Substitutions are numbered along the chain they refer to. No constants are given. Whether binding was seen depends on the method and setting. Some binding calls cover weakened binding; strength is not graded here.
Legend:
[1] = target: full length recombinant human 2N4R tau (amino acids 1-441) (human) (UniProt P10636); assay: phage ELISA, tau 100 ng/well, phage supernatant 1:25, anti-M13-HRP, n=1
[2] = target: T1, antigen peptide [C]-…-amide (tau 396-410 with N-terminal cysteine) (human); assay: phage ELISA, phage supernatant 1:25, anti-M13-HRP, n=1
T1 sequence (peptide, C-terminal amide): CSPVVSGDTSPRHLSN

By UniProt entry, the sequences of proteins in these tests, tags left out. Where a name states a change or a piece, a line headed by the entry shows the natural chain unless it says otherwise.
UniProt P10636: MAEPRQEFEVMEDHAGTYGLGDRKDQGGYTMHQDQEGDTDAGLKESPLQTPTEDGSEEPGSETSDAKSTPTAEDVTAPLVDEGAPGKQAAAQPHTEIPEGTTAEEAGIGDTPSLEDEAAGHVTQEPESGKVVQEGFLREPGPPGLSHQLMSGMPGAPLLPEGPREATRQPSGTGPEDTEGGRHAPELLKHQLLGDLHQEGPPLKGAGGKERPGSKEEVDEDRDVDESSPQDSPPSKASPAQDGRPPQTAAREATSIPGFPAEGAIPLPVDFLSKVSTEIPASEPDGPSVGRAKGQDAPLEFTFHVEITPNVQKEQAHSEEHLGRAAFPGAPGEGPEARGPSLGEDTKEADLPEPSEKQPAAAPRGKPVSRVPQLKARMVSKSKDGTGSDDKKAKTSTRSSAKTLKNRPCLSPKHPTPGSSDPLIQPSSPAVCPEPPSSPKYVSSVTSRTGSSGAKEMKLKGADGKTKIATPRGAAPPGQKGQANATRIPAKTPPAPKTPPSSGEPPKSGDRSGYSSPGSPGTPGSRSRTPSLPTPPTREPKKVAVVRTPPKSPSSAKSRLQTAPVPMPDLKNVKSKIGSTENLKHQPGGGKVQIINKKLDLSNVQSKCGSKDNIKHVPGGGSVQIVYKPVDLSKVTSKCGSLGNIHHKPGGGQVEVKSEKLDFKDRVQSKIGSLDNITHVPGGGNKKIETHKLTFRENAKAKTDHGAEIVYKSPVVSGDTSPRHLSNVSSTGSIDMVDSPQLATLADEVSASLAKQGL

[3] = target: T1, antigen peptide [C]-…-amide (tau 396-410 with N-terminal cysteine) (human); assay: phage ELISA, peptide conjugated to BSA or transferrin
[4] = target: full length recombinant human 2N4R tau (amino acids 1-441) (human) (UniProt P10636); assay: phage ELISA
[5] = target: T1, antigen peptide [C]-…-amide (tau 396-410 with N-terminal cysteine) (human); assay: ELISA on peptide SEQ ID NO: 13, HEK293F supernatant 1:50, anti-rabbit IgG-HRP, n=1
[6] = target: T1, antigen peptide [C]-…-amide (tau 396-410 with N-terminal cysteine) (human); assay: ELISA, HEK293F supernatant on coated peptide
[7] = target: full length recombinant human 2N4R tau (amino acids 1-441) (human) (UniProt P10636); assay: ELISA on full length 2N4R tau 100 ng/well, HEK293F supernatant 1:50, anti-rabbit IgG-HRP, n=1
[8] = target: full length recombinant human 2N4R tau (amino acids 1-441) (human) (UniProt P10636); assay: western blot, HEK293F supernatant
[9] = target: full length recombinant human 2N4R tau (amino acids 1-441) (human) (UniProt P10636); assay: ELISA on full length 2N4R tau 100 ng/well, purified IgG, anti-rabbit IgG-HRP, n=2 wells
[10] = target: full length recombinant human 2N4R tau (amino acids 1-441) (human) (UniProt P10636); assay: ELISA, purified IgG
[11] = target: T2, linear peptide 396…410 (tau 396-410), lead sequence of the Pepscan array (human); assay: Pepscan peptide-array ELISA
T2 sequence (peptide): SPVVSGDTSPRHLSN

[12] = target: full length recombinant human 2N4R tau (amino acids 1-441) (human) (UniProt P10636); assay: western blot with HEK supernatant
[13] = target: full length recombinant human 2N4R tau (amino acids 1-441) (human) (UniProt P10636); assay: western blot, HEK supernatant
[14] = target: T2, linear peptide 396…410 (tau 396-410), lead sequence of the Pepscan array (human); assay: Pepscan peptide array ELISA, antibody 0.25 µg/mL, CCD read-out 0-3000 mAU

Measured: binding

B1: Clone 13 human scFv (phage displayed) (scFv, V domains shown)
VH: ESGGGVVKPGGSLRLACEASGFTFNKYAMSWVRQAPGKGLEWVSGNSGSGNSTYYADSVKGRFTISRDNSKNILYLDMNNLRAEDTALYYCAKTRGAGRRKPYGMDVWGHGTTVTVSS
VL: VMTQSPSTLSLSPGERATLSCRASQSVANNYLAWYQHKPGQAPRVLIYGASSRATGIPDRFSGSGSGTDFTLTISRLEPEDFAVYYCQQYGSSPRTFGGGTKLEIK
binds: [1] | [2] | [3] | [4]

B2: Clone 5 rabbit monoclonal IgG (antibody, V domains shown)
VH: QSLEESGGRLVAPGTPLTLTCTVSGFSLSSYDMSWVRQAPGRGLEWIGTISSSYRTYYASWAKGRFTISKTSSTTVDLKMTSLTTEDTATYFCASSGIWGPGTLVTVSL
VL: AQVLTQTASPVSAAVGGTVTINCQSSQRVYNNYLAWYQQKPGQPPKRLIYLASTLESGVPSRFSGSGSGTQFTLTISGVVCDDAATYYCAGTYSGSIWAFGGGTEVVVKG
binds: [5] | [6] | [7]

B3: Clone 7 rabbit monoclonal IgG (antibody, V domains shown)
VH: B2 VH with L3V, A12T, R42K, S51G, S52R, S53Y, R55N, S60T
VL: AQVLTQTASPVSAAVGGTVTINCQSSQTVYNNNYLSWYQQKPGQPPKRLIYLASTLESGVPSRFSGSGSGTQFTLTISGVVCDDAATYYCAGTYSGSIWAFGGGTEVVVKG
binds: [5] | [6] | [7]

B4: Clone 1 rabbit monoclonal IgG (antibody, V domains shown)
VH: QSLEESGGGLVKPGGTLTLTCTVSGFSLNNYDMSWVRQAPGKGLEWIGTVSTTYRRYYASWAKGRFTISKTSSTTVDLKMTSLTTEDTATYFCAASGIWGPGTLVTVSL
VL: B2 VL with A8T, N31S, Y50F, G78D, V79L, V80E, S94T
not listed: [1] | [2] | [3] | [4]
binds: all other assays above

B5: Clone 3 rabbit monoclonal IgG (antibody, V domains shown)
VH: B2 VH with L3V, A12T, V23A, S30R, R42K, S52G, R55N, A59M
VL: B2 VL with N31S, A35S, K46R, Y50W
binds: [5] | [8] | [6] | [7] | [12] | [13]

B6: Clone 6 rabbit monoclonal IgG (antibody, V domains shown)
VH: B2 VH with L3V, A12T, R42K, S51G, S52R, S53Y, R55N, S60T
VL: B3 VL
binds: [5] | [6] | [7]

B7: Clone 4 rabbit monoclonal IgG (antibody, V domains shown)
VH: B2 VH with L3V, A12T, R42K, S51G, S52R, S53Y, R55N, S60T
VL: B3 VL
binds: [5] | [8] | [6] | [7] | [12] | [13]

B8: Clone 8 rabbit monoclonal IgG (antibody, V domains shown)
VH: B2 VH
VL: B2 VL
binds: [5] | [6] | [7]
